# Primary screen of a compound library

Protein sequences, listed by entry. Tags and fused reporters are not part of them.
UniProt E9BF75, entry or part of it: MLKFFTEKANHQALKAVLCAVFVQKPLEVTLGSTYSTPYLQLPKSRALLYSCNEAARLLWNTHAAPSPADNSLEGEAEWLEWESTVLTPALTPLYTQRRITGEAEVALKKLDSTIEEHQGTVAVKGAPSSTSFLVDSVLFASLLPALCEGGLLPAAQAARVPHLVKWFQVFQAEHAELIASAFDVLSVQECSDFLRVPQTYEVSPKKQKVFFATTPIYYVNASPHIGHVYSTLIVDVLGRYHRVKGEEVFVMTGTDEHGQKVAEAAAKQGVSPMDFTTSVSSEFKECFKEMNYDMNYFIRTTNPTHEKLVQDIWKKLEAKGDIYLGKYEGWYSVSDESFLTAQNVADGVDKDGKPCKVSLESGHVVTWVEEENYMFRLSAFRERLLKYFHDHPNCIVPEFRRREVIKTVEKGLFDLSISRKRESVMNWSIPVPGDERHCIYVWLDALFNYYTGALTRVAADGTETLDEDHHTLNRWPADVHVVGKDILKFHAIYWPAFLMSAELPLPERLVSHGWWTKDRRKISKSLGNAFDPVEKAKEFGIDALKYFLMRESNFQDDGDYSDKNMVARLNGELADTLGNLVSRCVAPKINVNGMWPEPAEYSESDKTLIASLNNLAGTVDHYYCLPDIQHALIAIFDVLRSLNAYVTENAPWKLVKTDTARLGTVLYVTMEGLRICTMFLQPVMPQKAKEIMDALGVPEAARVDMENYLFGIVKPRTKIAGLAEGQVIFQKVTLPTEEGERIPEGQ

The values are deposited in ChEMBL (CHEMBL3988442, “University of Dundee, Small-Polar-MMV Screening Library” (2021)).

Mtb heat-shock: 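Assay on Mycobacterium tuberculosis, filed only as a heat shock assay from Cornell; the read-out is not stated. The concentration is filed as 10 mM, unlikely as a test dose, so the dose is not known. The record gives no direction; compounds that gave an IC50 in retests scored well above the rest, so higher reads as stronger inhibition. Of about 69,000 compounds tested this way, about 930 (1.4%) reached 50% or more in at least one test.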
Mtb growth Cornell: 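Whole-cell assay for inhibitors of Mycobacterium tuberculosis growth, labelled Cornell in the record; the read-out is not stated. The concentration is filed as 10 mM, unlikely as a test dose, so the dose is not known. Higher means stronger inhibition (inferred from two other growth screens of the library). Of about 53,000 compounds tested this way, about 900 (1.7%) reached 50% or more in at least one test.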
LdMetRS: 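Methionyl-tRNA synthetase (putative), Leishmania donovani (UniProt E9BF75). Primary screen of methionyl-tRNA synthetase; the read-out is not stated. The test concentration is not given. Values are per cent inhibition. Size under these conditions: about 68,000 compounds, about 24 of them at 50% or above in at least one test.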

Results are percentages, as filed.
The controls that fix the scale are not given in the record; negative values are as filed.
The compounds are a random part of those screened.

Result for Cc1ccnn1CCCNC(=O)C1CCN(S(C)(=O)=O)CC1 was Mtb heat-shock: -39.98%; LdMetRS: 6.63%.
Result for O=C(O)C(F)(F)F.O=C(O)C(F)(F)F.c1ccc(O[C@H]2CO[C@@]3(CCCN(Cc4nccs4)C3)C2)nc1 was Mtb heat-shock: -15.28%; Mtb growth Cornell: -45.48%.
Result for CN(C)C(=O)N1CCC2(CCCN(c3ncccn3)C2)C1 (stereo not shown) was LdMetRS: 17.77%.
Result for O=C(CCS(=O)(=O)c1ccccc1)NC1CCOC2(CCOCC2)C1 (stereo not shown) was Mtb heat-shock: 12.52%; LdMetRS: 16.97%.
Result for O=C(Cn1c(=O)n(Cc2ccco2)c2ncccc21)NC1CCCCC1 was Mtb heat-shock: 13.16%; Mtb growth Cornell: 4.14%; LdMetRS: 13.36%.
Result for Cc1cccc(CN2CCC3(CCN(c4ncccn4)CC3)C2=O)c1 was LdMetRS: 24.65%.
Result for CN1[C@H](CN2CCCC2)C[C@@H]2CN(C(=O)c3cnccn3)CC[C@@H]21 was LdMetRS: 16.48%.
Result for Cc1cnn(C(C)C2CC2)c1NC(=O)c1ccncc1 (stereo not shown) was Mtb heat-shock: -7.512%; Mtb growth Cornell: 26.28%; LdMetRS: 6.667%.
Result for CC(C)CN(Cc1ccccn1)Cc1ccccc1OCC(=O)O was Mtb heat-shock: -2.528%; Mtb growth Cornell: 19.8%; LdMetRS: 15.5%.
Result for CN(C)Cc1cc(C2CCCCN2S(=O)(=O)c2cccc(Cl)c2)nn1C.Cl (stereo not shown) was Mtb heat-shock: 6.754%; Mtb growth Cornell: 9.135%.
Result for COCCNC(=O)C1CN(C(N)=O)Cc2ccnn2C1 (stereo not shown) was Mtb heat-shock: -33.87%; Mtb growth Cornell: 39.56%; LdMetRS: 10.14%.
Result for CCN1CCOCC12CCN(c1cnccn1)CC2.O=C(O)C(F)(F)F was Mtb heat-shock: -4.677%; Mtb growth Cornell: -0.307%.
Result for CCC[C@H]1CN(S(=O)(=O)c2ccc(CC)s2)C[C@@H]1N was Mtb heat-shock: -53.56%; Mtb growth Cornell: -6.221%; LdMetRS: 6.015%.
Result for Cc1cnn(C2CCCN(C(=O)CN(C)c3cnccn3)C2)c1 (stereo not shown) was Mtb heat-shock: 6.556%; Mtb growth Cornell: 5.973%; LdMetRS: 2.128%.
Result for Cc1cccc(CN2C[C@@H]3CN(C(=O)c4conc4C)C[C@@H]3C2=O)c1 was LdMetRS: 13.33%.
Result for Cc1nc(CN2C(=O)CC[C@@H]3[C@H]2CCN3C(=O)C2CCOCC2)cs1 was LdMetRS: 12.38%.
Result for COC(=O)c1ncccc1N1CCN(C(=O)CN2CCOCC2)CC1 was Mtb heat-shock: -7.438%; LdMetRS: -0.2801%.
Result for CC(C)N1C[C@@H](CO)[C@H](c2ccccc2)S1(=O)=O was Mtb heat-shock: 4.879%; Mtb growth Cornell: -12.57%; LdMetRS: 12.7%.
Result for Cc1cc(C)n(-c2nc(C(=O)NCCN3CCC(C)CC3)cs2)n1 was Mtb heat-shock: -5.156%; Mtb growth Cornell: 20.39%; LdMetRS: 18.1%.
Result for O=C(c1cnc(-c2cnccn2)s1)N1CCCC(n2cccn2)C1 (stereo not shown) was Mtb heat-shock: -2.468%; Mtb growth Cornell: -32.7%; LdMetRS: 23.36%.

The first 2 entries again:

{"smiles": "Cc1ccnn1CCCNC(=O)C1CCN(S(C)(=O)=O)CC1", "Mtb heat-shock": -39.98, "LdMetRS": 6.63}
{"smiles": "O=C(O)C(F)(F)F.O=C(O)C(F)(F)F.c1ccc(O[C@H]2CO[C@@]3(CCCN(Cc4nccs4)C3)C2)nc1", "Mtb heat-shock": -15.28, "Mtb growth Cornell": -45.48}